Some of the results follow.
Each target was assayed with CS(=O)(=O)c1ccc(-c2cnc(N)c(C(=O)Nc3ccccc3)n2)cc1 (assay: log2 fold change, soluble protein after heating vs DMSO (PISA); higher = thermal stabilisation; K562 cells, 10 uM, 30 min; active = over 0.2 and 3.5 SD of the protein, either way, in both replicates (recomputed)).
How it was run: (§1)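 Thermal stability values are relative to control samples and come from duplicates. They are expressed as log2 fold changes. For measurement, K562 cells (2×10^6 cells/mL) received 10 μM compound for 30 min, and aliquots were heated for 3 min over 48°C-58°C, pooled, and extracted at 4°C in PBS with 0.5% NP-40. Soluble protein, the supernatant after 21,000xg for 90 min, was quantified by TMTpro 16plex LC-MS/MS with equalised channel sums.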

Protein sequences, listed by entry. Tags and fused reporters are not part of them. Lines headed by an entry give the natural chain unless they say otherwise; changes in a name come on top.
UniProt O60331: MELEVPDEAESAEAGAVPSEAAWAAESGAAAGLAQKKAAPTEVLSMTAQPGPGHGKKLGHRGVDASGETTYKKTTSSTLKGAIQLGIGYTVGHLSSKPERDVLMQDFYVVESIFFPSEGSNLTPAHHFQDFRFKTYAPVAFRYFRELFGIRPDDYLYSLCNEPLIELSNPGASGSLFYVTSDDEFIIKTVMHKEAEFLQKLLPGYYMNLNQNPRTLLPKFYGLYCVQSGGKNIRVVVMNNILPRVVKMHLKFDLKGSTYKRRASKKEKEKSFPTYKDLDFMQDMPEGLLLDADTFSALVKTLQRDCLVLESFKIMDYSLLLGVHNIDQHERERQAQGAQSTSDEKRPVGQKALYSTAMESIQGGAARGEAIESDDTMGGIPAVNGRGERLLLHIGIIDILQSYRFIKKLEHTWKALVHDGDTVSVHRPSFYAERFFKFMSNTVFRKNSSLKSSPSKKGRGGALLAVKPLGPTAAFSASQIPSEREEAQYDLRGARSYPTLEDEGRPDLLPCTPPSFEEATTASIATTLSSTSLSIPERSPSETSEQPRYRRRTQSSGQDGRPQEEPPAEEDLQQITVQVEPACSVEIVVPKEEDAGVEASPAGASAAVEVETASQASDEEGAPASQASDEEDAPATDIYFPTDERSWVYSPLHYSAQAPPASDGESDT
UniProt P42336, whole entry, looked up: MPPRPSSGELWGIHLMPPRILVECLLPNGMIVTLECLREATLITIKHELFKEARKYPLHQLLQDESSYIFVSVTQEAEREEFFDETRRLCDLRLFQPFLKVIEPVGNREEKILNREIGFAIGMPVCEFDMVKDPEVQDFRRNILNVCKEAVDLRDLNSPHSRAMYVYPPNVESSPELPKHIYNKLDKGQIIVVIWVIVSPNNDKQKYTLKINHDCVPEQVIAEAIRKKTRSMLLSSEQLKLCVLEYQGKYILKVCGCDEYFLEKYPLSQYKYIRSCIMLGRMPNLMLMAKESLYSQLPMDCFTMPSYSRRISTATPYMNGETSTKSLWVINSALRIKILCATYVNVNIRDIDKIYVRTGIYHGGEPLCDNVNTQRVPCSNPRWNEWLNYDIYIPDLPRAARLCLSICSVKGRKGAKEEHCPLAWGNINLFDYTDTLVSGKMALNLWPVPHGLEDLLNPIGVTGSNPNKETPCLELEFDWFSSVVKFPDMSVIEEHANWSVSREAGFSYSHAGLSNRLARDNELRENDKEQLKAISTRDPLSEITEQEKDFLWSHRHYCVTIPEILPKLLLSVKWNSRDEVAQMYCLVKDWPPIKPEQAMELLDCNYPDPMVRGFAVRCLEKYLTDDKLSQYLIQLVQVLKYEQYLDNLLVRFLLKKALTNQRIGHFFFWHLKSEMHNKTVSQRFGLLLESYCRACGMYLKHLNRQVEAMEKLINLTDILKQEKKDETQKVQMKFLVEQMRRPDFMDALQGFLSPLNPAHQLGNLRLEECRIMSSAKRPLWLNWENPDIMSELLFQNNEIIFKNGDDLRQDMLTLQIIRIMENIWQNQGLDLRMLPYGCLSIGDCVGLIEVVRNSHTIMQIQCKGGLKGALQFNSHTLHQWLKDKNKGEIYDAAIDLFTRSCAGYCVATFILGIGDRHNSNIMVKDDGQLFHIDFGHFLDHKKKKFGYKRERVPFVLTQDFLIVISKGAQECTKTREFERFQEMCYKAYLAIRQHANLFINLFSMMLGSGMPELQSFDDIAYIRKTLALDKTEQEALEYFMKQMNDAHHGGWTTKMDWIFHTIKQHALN
UniProt Q8TBF5: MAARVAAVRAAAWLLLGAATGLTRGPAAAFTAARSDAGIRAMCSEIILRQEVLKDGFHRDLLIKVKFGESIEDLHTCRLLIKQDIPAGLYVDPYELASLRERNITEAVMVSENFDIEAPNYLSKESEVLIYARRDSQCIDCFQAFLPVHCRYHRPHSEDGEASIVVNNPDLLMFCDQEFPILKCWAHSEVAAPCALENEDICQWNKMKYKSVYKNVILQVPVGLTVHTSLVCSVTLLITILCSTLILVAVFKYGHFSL
PIGBOS1, A0A0B4J2F0, UniProt A0A0B4J2F0, whole entry, looked up: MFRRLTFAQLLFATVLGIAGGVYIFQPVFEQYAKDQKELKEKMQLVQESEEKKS
UniProt Q9BZM1: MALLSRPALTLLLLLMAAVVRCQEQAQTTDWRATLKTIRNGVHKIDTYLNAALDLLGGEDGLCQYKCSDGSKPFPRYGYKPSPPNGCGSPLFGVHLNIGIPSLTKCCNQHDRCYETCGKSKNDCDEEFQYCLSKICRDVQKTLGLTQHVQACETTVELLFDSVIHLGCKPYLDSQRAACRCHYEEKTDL
UniProt P60673: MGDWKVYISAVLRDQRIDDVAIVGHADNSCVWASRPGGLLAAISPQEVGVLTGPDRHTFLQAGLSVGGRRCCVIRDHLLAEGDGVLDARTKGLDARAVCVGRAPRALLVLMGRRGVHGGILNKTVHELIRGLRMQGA
UniProt Q8IUZ5: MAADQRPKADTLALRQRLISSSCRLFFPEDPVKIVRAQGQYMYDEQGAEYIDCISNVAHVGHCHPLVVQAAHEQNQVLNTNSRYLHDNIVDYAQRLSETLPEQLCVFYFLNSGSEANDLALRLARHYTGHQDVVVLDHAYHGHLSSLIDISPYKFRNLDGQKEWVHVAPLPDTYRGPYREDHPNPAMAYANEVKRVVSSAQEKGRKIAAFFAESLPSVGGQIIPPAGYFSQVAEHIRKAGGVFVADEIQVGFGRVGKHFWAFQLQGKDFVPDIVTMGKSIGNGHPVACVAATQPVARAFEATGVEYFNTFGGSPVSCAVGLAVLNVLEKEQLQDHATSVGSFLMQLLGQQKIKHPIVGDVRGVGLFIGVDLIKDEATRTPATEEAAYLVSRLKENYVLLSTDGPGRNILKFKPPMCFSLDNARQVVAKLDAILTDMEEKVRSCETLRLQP
UniProt Q8TCG2: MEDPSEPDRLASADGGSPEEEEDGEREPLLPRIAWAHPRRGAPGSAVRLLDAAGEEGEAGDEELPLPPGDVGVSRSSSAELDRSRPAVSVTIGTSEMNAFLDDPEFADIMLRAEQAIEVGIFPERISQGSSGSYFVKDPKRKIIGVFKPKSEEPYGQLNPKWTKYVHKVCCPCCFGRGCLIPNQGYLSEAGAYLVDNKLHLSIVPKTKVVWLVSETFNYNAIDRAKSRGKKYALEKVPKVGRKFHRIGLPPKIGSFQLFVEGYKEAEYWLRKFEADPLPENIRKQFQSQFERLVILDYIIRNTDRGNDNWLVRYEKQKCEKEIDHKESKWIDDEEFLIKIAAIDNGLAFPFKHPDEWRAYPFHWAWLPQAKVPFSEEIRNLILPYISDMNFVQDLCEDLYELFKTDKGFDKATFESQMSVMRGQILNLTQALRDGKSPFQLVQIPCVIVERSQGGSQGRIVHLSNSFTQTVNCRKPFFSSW
UniProt Q9Y2B2: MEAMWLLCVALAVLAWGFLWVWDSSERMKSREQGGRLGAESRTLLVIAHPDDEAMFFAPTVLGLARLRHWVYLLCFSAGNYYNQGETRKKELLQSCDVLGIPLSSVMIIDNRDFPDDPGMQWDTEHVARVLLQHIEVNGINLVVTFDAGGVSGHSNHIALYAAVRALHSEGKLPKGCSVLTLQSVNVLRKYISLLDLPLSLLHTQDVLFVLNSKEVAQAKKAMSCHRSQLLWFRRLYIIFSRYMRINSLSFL
UniProt Q8TCD6: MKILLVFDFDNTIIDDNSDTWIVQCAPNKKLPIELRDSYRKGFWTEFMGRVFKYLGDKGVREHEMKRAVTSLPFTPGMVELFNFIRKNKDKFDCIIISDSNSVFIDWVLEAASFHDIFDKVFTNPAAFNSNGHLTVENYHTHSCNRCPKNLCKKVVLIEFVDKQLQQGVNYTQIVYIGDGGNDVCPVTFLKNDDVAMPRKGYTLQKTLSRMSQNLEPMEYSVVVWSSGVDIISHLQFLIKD
UniProt Q7Z412: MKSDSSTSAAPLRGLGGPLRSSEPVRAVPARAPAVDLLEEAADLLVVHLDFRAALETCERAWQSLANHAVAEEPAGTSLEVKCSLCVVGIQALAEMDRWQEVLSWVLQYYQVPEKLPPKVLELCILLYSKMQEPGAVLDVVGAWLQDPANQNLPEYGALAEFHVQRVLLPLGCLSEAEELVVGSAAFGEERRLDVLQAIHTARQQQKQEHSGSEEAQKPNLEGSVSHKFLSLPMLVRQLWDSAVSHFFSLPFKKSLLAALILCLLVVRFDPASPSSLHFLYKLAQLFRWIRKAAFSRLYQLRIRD
UniProt Q86UU1: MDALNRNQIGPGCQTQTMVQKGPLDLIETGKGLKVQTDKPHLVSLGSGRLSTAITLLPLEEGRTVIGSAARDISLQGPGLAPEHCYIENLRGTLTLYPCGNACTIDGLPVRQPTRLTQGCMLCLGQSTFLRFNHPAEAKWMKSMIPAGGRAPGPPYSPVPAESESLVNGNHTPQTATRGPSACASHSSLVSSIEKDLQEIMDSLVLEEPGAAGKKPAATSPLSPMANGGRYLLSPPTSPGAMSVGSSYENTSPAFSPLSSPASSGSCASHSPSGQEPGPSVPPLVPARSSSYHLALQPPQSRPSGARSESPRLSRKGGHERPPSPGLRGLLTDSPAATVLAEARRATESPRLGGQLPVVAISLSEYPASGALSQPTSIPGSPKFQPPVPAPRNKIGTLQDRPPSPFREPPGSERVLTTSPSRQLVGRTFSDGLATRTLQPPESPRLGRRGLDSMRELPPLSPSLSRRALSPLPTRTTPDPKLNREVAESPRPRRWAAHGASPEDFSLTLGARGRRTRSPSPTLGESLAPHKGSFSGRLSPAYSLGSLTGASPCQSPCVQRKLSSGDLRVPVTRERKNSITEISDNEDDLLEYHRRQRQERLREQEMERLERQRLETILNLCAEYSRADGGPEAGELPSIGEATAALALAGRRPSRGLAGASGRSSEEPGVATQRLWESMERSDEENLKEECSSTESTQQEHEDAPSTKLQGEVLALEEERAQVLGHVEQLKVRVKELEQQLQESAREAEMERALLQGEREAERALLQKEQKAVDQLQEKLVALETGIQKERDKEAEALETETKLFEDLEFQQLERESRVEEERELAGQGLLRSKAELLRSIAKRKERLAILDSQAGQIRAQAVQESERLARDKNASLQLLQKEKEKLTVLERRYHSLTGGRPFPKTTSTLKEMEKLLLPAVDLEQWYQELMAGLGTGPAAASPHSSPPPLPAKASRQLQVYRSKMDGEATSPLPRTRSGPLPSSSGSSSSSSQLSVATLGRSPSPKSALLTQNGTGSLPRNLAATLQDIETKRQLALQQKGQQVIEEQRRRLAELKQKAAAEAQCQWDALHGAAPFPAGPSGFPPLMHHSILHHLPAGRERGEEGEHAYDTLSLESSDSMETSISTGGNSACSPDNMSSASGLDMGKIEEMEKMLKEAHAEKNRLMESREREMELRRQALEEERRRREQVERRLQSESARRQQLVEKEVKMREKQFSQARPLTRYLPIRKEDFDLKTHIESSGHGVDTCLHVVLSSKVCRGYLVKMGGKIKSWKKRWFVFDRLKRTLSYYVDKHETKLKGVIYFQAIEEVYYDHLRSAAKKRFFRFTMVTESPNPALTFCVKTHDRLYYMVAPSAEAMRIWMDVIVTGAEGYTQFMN
UniProt Q8TEQ8: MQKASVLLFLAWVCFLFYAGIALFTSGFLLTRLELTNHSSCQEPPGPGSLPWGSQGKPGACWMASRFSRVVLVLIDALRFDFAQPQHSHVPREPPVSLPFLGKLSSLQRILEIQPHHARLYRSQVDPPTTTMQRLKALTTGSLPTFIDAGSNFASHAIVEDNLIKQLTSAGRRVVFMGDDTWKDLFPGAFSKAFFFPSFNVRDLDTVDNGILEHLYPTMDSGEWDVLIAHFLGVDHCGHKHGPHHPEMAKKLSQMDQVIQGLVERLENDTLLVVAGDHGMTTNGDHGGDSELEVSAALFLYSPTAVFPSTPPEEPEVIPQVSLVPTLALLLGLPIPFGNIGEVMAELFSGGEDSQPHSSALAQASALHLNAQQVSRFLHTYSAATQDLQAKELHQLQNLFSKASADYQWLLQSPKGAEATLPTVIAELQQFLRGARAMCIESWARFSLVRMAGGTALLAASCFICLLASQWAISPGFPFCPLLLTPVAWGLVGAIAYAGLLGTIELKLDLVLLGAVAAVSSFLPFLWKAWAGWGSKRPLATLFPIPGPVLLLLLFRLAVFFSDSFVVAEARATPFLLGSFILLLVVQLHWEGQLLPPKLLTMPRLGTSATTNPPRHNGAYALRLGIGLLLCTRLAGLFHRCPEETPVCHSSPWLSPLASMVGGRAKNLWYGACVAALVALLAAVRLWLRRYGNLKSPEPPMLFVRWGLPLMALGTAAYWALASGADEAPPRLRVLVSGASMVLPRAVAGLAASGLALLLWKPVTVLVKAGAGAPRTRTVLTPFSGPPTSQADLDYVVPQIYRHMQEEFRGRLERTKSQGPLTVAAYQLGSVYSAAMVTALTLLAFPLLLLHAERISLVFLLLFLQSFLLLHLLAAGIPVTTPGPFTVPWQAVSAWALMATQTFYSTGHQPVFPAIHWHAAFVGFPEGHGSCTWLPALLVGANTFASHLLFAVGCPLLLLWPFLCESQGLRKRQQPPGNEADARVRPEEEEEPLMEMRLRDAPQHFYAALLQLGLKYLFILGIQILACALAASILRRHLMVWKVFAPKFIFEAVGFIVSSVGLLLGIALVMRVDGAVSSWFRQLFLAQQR

Target | log2 fold change
PIP5K1C isoform 3 (UniProt O60331) | inactive: 0.112
PHF14 (UniProt O94880) | inactive: -0.283
PIK3CA (UniProt P42336) | inactive: -0.089
PIGX isoform 2 (UniProt Q8TBF5) | inactive: 0.124
PIGW (UniProt Q7Z7B1) | inactive: 0.047
PIGBOS1, A0A0B4J2F0 | inactive: 0.115
PEX5 isoform 4 (UniProt P50542) | inactive: -0.091
PLA2G12A (UniProt Q9BZM1) | inactive: -0.017
PKMYT1 (UniProt Q99640) | inactive: 0.036
PFKFB1 (UniProt P16118) | inactive: -0.116
PFN3 (UniProt P60673) | inactive: 0.22
PHYKPL (UniProt Q8IUZ5) | inactive: 0.007
PICK1 (UniProt Q9NRD5) | inactive: 0.089
PI4K2B (UniProt Q8TCG2) | inactive: 0.06

These targets were tested with C[C@@H](Oc1cc(-c2cnn(C3CCNCC3)c2)cnc1N)c1c(Cl)ccc(F)c1Cl [crizotinib] in the same assay as above.
How it was run: as §1

Target | log2 fold change
PIAS4 (UniProt Q8N2W9) | inactive: -0.178
PIGH (UniProt Q14442) | inactive: -0.037
PGD (UniProt K7EM49) | inactive: 0.1
PIGL (UniProt Q9Y2B2) | inactive: -0.114
PHOSPHO2 (UniProt Q8TCD6) | inactive: 0.058
PEX26 (UniProt Q7Z412) | inactive: -0.164
PLEK (UniProt P08567) | inactive: 0.313
PHLDB1 isoform 2 (UniProt Q86UU1) | inactive: -0.307
PFKM (UniProt F8VTQ3) | inactive: -0.107
PIGO (UniProt Q8TEQ8) | inactive: -0.01
PIAS1 isoform 2 (UniProt O75925) | inactive: -0.161
PI4K2B (UniProt Q8TCG2) | inactive: -0.184

These targets were tested with C[C@@H]1COCCN1C2=NC(=NC(=C2)C3(CC3)S(=O)(=O)C)C4=C5C=CNC5=CC=C4 in the same assay as above.
How it was run: as §1

Target | log2 fold change
PIAS4 (UniProt Q8N2W9) | inactive: 0.047
PIP5K1C isoform 3 (UniProt O60331) | inactive: -0.082
PIK3CA (UniProt P42336) | inactive: 0.035
PIGH (UniProt Q14442) | inactive: -0.012
PGD (UniProt K7EM49) | inactive: 0.089
PKP4 (UniProt Q99569) | inactive: -0.134
PIGL (UniProt Q9Y2B2) | inactive: -0.001
PIGX isoform 2 (UniProt Q8TBF5) | inactive: 0.053
PIGW (UniProt Q7Z7B1) | inactive: -0.001
PIGBOS1, A0A0B4J2F0 | inactive: 0.099
PEX26 (UniProt Q7Z412) | inactive: 0.232
PEX5 isoform 4 (UniProt P50542) | inactive: -0.016
PLA2G12A (UniProt Q9BZM1) | inactive: -0.43
PKMYT1 (UniProt Q99640) | inactive: 0.216
PHLDB1 isoform 2 (UniProt Q86UU1) | inactive: 0.058
PFKFB1 (UniProt P16118) | inactive: 0.047
PHLPP1 (UniProt O60346) | inactive: -0.142
PFN3 (UniProt P60673) | inactive: -0.18
PLEKHA5 isoform 6 (UniProt Q9HAU0) | inactive: -0.051
PIGO (UniProt Q8TEQ8) | inactive: 0.031
PHYKPL (UniProt Q8IUZ5) | inactive: 0.05
PICK1 (UniProt Q9NRD5) | inactive: -0.073

Each target was assayed with C[C@H](C1=CC=C(C=C1)C(=O)NC2=C3C=CNC3=NC=C2)N in the same assay as above.
How it was run: as §1

Target | log2 fold change
PIK3CA (UniProt P42336) | inactive: 0.134
PIGH (UniProt Q14442) | inactive: -0.179
PIGL (UniProt Q9Y2B2) | inactive: 0.005
PIGX isoform 2 (UniProt Q8TBF5) | inactive: -0.128
PIGBOS1, A0A0B4J2F0 | inactive: -0.029
PHOSPHO2 (UniProt Q8TCD6) | inactive: -0.23
PEX26 (UniProt Q7Z412) | inactive: 0.07
PLAUR (UniProt Q03405) | inactive: 0.029
PEX5 isoform 4 (UniProt P50542) | inactive: 0.15
PLA2G12A (UniProt Q9BZM1) | inactive: -0.199
PHLDB1 isoform 2 (UniProt Q86UU1) | inactive: -0.043
PHLPP1 (UniProt O60346) | inactive: 0.082
PFN3 (UniProt P60673) | inactive: 0.118
PLEKHA5 isoform 6 (UniProt Q9HAU0) | inactive: 0.303
PIGO (UniProt Q8TEQ8) | inactive: 0.058
PI4K2B (UniProt Q8TCG2) | inactive: 0.118

The targets below were run with C[C@H](Nc1ncnc2nc[nH]c12)c1cc2cccc(Cl)c2c(=O)n1-c1ccccc1 [duvelisib] in the same assay as above.
How it was run: as §1

Target | log2 fold change
PLEKHB2 isoform 2 (UniProt Q96CS7) | inactive: 0.207
PIP5K1C isoform 3 (UniProt O60331) | inactive: 0.065
PHF14 (UniProt O94880) | inactive: -0.081
PHETA1 isoform 4 (UniProt Q8N4B1) | inactive: -0.023
PIGL (UniProt Q9Y2B2) | inactive: 0.008
PIGX isoform 2 (UniProt Q8TBF5) | inactive: 0.039
PKNOX1 (UniProt P55347) | inactive: -0.037
PIGW (UniProt Q7Z7B1) | inactive: 0.122
PIGBOS1, A0A0B4J2F0 | inactive: 0.051
PHOSPHO2 (UniProt Q8TCD6) | inactive: 0.145
PEX26 (UniProt Q7Z412) | inactive: 0.034
PLA2G12A (UniProt Q9BZM1) | inactive: -0.136
PHLDB1 isoform 2 (UniProt Q86UU1) | active: -0.759
PHLPP1 (UniProt O60346) | inactive: -0.099
PFN3 (UniProt P60673) | inactive: 0.247
PIBF1 (UniProt Q8WXW3) | inactive: -0.456
PGM1 isoform 2 (UniProt P36871) | inactive: 0.045
PHYKPL (UniProt Q8IUZ5) | inactive: 0.274

Source: the supplement of paper PMC10849652
